{"source": "paper PMC5296656", "molecular_target": "T1, S. cerevisiae GST-Acl4 (wild type) (S. cerevisiae) (UniProt Q03771)", "T1 sequence": "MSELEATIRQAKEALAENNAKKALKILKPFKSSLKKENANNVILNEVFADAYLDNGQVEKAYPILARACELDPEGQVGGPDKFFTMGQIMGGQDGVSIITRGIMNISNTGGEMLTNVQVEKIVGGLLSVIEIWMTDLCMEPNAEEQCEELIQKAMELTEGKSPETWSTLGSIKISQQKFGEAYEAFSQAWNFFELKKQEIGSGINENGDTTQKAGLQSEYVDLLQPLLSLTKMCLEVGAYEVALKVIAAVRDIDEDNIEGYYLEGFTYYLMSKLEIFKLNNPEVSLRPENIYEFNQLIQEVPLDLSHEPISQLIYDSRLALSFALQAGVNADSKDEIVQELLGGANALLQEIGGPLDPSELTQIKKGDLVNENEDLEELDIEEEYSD", "experiment": "pull-down; GST-Acl4 (bait) coexpressed with SUMO-RpL4^ΔEXT in E. coli; cleared lysate on glutathione sepharose, 1 h 4 °C, 20 mM TRIS pH 8.0, 100 mM NaCl, 5 mM DTT; glutathione elution, Coomassie", "note": "These are yes or no findings as the source states them, for the method shown. In cells and extracts the contact can be indirect. Binding calls can cover weak binding; strength is not graded here. Sequences can lack the tags named with a protein.", "data": [{"substance": "S. cerevisiae SUMO-RpL4^ΔEXT (domain or fragment)", "values": [{"measurement": "binding", "value": "binds"}]}]}
